# Laboratory results reported in article PMC7862700.
# The list shows a part of the results, in another mix than the full data. At the low end of the ranking, values are background and their order means little.
# Molecular target: SPI1 (UniProt P17947)
# Test: DAPPL (digital affinity profiling via proximity ligation, sequencing)
# Conditions: 10 mM Tris-HCl pH 7.5, 50 mM NaCl, 1 mM DTT, 4% glycerol, room temperature, 30 min; GST-TFs on glutathione beads, 16-mer random dsDNA library, 0.1% …; high values mean tight binding; double strand, one strand shown; scale: fold enrichment (6-mer frequency, TF over GST control)
row,Sequence,binding signal
1,GGAGTT,0.419
2,TAAGTG,0.766
3,TGTCGA,0.858
4,CGGGCA,0.699
5,ACGTGT,0.591
6,CGGTGG,0.647
7,AGGGTC,0.867
8,GCACAG,0.776
9,ATGAGT,0.673
10,GGGGTT,0.79
11,GCATGG,0.832
12,GGCACA,0.838
13,AGAGGC,0.632
14,CAGCGT,0.82
15,CAAGGA,0.762
16,AACGGG,0.802
17,AGCAGT,0.714
18,AGGTCG,0.491
19,GGCGGT,0.402
20,GTCGGA,0.176

# 2 entries drawn at random from the list so far, as already listed:
row,Sequence,binding signal
13,AGAGGC,0.632
17,AGCAGT,0.714

# (continued)

row,Sequence,binding signal
1,AGGCAT,0.792
2,TCGCAG,0.873
3,GCGCAG,0.856
4,GGTGCC,0.711
5,GTCGGT,0.29
6,CAACAG,0.863
7,CAGTCT,0.743
8,GGCATG,0.819
9,GCGCTG,0.747
10,GACCAG,0.571
11,GAGCCT,0.841
12,ACGCAA,0.883
13,CAGTGG,0.467
14,CTGGGA,0.913
15,CGCGGT,0.859
16,GCGAGC,0.907
17,GGGTGA,0.663
18,GAACGG,0.572
19,ACGGCG,0.831
